Results reported in US20070134744A1, “Epothilone resistant cell lines” (priority 2000, published 2007).

Columns and labels:
Assay type in all cases: cell-based, human
297/C5/0 cells = details: 297/C5/0 (EpoA selected), 72 hrs, average of three experiments
Protocol: (§1) Anti-proliferative assays are performed basically as described (Meyer et al., Int. J. Cancer 43:851 (1989)). Briefly, cells are seeded at 1.5×10^3 cells/well into 96-well microtiter plates and allowed to adhere by incubation overnight. Compounds are added in serial dilutions on day 1. The plates are then incubated for an additional 3 days, after which the cells are fixed with 3.3% v/v glutaraldehyde, washed with water and stained with 0.05% w/v methylene blue according to conventional methods. After washing, the dye is eluted with 3% HCl and the optical density measured at 665 nm with a SpectraMax Plus (Molecular Devices, Sunnyvale, Calif.) according to manufacturers instructions. IC50 values are determined by mathematical curve-fitting using the SoftPro2.6.1 program (Molecular Devices, Sunnyvale, Calif.) using the formula (OD treated−OD start)/(OD control−OD start)×100. The IC50 is defined as the drug concentration that led to 50% inhibition of net cell growth at the end of the incubation period. IC50 determinations with the cell line 298/D4/40 are performed in the presence of 40 nM epothilone A.
(§2) Data in Table 4 are gathered according to the following methods: Cells (1×10^3) are seeded in 96-well plates and allowed to adhere for 24 hrs. Compounds are then added as two-fold serial dilutions and incubation continued for an additional 72 hrs. Cell numbers at the beginning and at the end of the experiment are estimated by methylene blue staining of cellular protein mass according to conventional methods. The net mass increase of vehicle-treated cells is set as 100% growth. The IC50 is determined as the drug concentration that leads to half-maximal growth inhibition compared to the control. The resistance factor (RF) for a particular drug is calculated by dividing the IC50 determined on the resistant cell line by that determined on the parental KB-31 cells. Data are presented as average±standard deviation (SD) of three separate experiments, except na=not applicable (n<3). Colchicine-selected KB-8511 cells overexpressing P-glycoprotein served as a reference for the classical multi-drug-resistant phenotype.

298/D4/40 cells = details: 298/D4/40 (EpoA selected), 72 hrs, in the presence of 40 nM epothilone A
Protocol: as §1, §2

315/sc5.9 cells = details: 315/sc5.9 (EpoB selected), 72 hrs, average of three experiments
Protocol: as §1, §2

KB-8511 cells = details: KB-8511 (Colch selected), 72 hrs, average of three experiments
Protocol: as §1, §2

CN[C@H]1CCc2cc(OC)c(OC)c(OC)c2-c2ccc(OC)c(=O)cc21 [Demecolcine, demecolcine]
RF (resistance factor: IC50 resistant cell line / IC50 parental KB-31) (297/C5/0 cells): 0.7
RF (resistance factor: IC50 resistant cell line / IC50 parental KB-31) (298/D4/40 cells): 0.5
RF (resistance factor: IC50 resistant cell line / IC50 parental KB-31) (315/sc5.9 cells): 0.7
RF (resistance factor: IC50 resistant cell line / IC50 parental KB-31) (KB-8511 cells): 6.2
